Biological target: Acetylcholinesterase (Electrophorus electricus, UniProt O42275)
Assay: Inhibition of electric eel AChE by Ellman's method

Amino acid sequences for entries named in this document (tags omitted). A change or cut given only in a name is not applied to a line headed by its entry.
UniProt O42275: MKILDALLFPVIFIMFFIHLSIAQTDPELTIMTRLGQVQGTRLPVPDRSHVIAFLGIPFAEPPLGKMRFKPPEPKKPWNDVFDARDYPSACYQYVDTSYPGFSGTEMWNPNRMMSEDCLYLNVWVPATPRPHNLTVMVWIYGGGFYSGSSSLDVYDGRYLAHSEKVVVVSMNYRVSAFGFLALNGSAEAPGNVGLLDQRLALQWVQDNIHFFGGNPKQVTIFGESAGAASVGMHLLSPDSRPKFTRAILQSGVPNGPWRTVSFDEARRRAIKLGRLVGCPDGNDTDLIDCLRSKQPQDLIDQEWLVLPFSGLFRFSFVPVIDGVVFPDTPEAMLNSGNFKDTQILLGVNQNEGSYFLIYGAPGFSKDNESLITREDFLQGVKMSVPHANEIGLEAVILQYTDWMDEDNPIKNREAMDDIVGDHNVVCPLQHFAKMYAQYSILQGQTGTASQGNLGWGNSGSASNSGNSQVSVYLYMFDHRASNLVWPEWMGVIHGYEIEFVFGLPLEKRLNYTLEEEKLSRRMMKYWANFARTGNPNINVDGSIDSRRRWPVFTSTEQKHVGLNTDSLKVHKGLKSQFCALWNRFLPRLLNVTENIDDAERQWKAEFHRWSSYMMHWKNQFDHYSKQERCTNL

`CN1CC[C@]23c4c5ccc(O)c4O[C@H]2[C@@H](O)C=C[C@H]3[C@H]1C5` [MORPHINE] gave a Ki of 109 µM.
